Some entries share one result that the patent states for a list of compounds.
Legend:
Format in all cases: in vivo
Myzus persicae = experiment: Test of control effect on Myzus persicae; details: 500 ppm, foliar application to potted Chinese cabbage, 6 days after application
Laodelphax striatella = experiment: Insecticidal test on Laodelphax striatella; details: 500 ppm, rice seedlings dipped 30 seconds, 3rd-instar larvae, 8 days after inoculation
Source text: Insecticidal Test on Laodelphax striatella
The amide compounds represented by the general formula (I) of the present invention or salts thereof were separately dispersed in water and diluted to 500 ppm, and rice plant seedlings (variety: Nihonbare) were dipped in the agrochemical dispersions for 30 seconds. After air-dried, each seedling was put into a separate glass test tube and inoculated with ten 3rd-instar larvae of Laodelphax striatella, and then the glass test tubes were capped with cotton plugs. At 8 days after the inoculation, the numbers of surviving larvae and dead larvae were counted, the corrected mortality rate was calculated according to the formula shown below, and the insecticidal effect was evaluated according to the criteria of Test Example 1. Corrected mortality rate (%)=100×(Survival rate in a non-treatment plot−Survival rate in a treatment plot)/Survival rate in a non-treatment plot

Plutella xylostella = experiment: Insecticidal test on Plutella xylostella; details: 500 ppm, Chinese cabbage seedlings with laid eggs dipped about 30 seconds, 25° C., 6 days after dip treatment
Source text: Insecticidal Test on Plutella xylostella
Adults of Plutella xylostella were released onto Chinese cabbage seedlings and allowed to lay eggs thereon. At 2 days after the release of the adults, the Chinese cabbage seedlings with laid eggs were dipped for about 30 seconds in agrochemical formulations diluted to 500 ppm, each of which contained a different amide compound represented by the general formula (I) of the present invention as an active ingredient. After air-dried, the seedlings were kept in a thermostatic chamber at 25° C. At 6 days after the dip treatment, the number of hatched larvae per plot was counted, the mortality rate was calculated according to the formula shown below, and the insecticidal effect was evaluated according to the criteria of Test Example 1. This test was conducted in triplicate using 10 adults of Plutella xylostella per plot. Corrected mortality rate (%)=100×(Number of hatched larvae in a non-treatment plot−Number of hatched larvae in a treatment plot)/Number of hatched larvae in a non-treatment plot

CCS(=O)(=O)c1cc(SC(F)(F)F)ccc1C(=O)N(C)c1ccc(SC(F)(F)F)cc1 [Compound 3-83]
A (the control rate is 100%): control effect (control rate) activity level (Myzus persicae) | insecticidal effect (corrected mortality rate) activity level (Laodelphax striatella) | insecticidal effect (corrected mortality rate, hatched larvae) activity level (Plutella xylostella)

CCSc1cc(C(F)(F)F)ccc1C(=O)N(COC)c1ccc(SC(F)(F)F)cc1 [Compound 3-84]
A (the control rate is 100%): control effect (control rate) activity level (Myzus persicae) | insecticidal effect (corrected mortality rate) activity level (Laodelphax striatella) | insecticidal effect (corrected mortality rate, hatched larvae) activity level (Plutella xylostella)

CC[S+]([O-])c1cc(C(F)(F)F)ccc1C(=O)N(COC)c1ccc(SC(F)(F)F)cc1 (stereo not drawn) [Compound 3-85]
A (the control rate is 100%): control effect (control rate) activity level (Myzus persicae) | insecticidal effect (corrected mortality rate) activity level (Laodelphax striatella) | insecticidal effect (corrected mortality rate, hatched larvae) activity level (Plutella xylostella)

CCS(=O)(=O)c1cc(C(F)(F)F)ccc1C(=O)N(COC)c1ccc(SC(F)(F)F)cc1 [Compound 3-86]
A (the control rate is 100%): control effect (control rate) activity level (Myzus persicae) | insecticidal effect (corrected mortality rate) activity level (Laodelphax striatella) | insecticidal effect (corrected mortality rate, hatched larvae) activity level (Plutella xylostella)

CCS(=O)(=O)c1cc(C(F)(F)F)ccc1C(=O)N(C)c1ccc([S+]([O-])C(F)(F)F)cc1 (stereo not drawn) [Compound 3-87]
A (the control rate is 100%): control effect (control rate) activity level (Myzus persicae) | insecticidal effect (corrected mortality rate) activity level (Laodelphax striatella) | insecticidal effect (corrected mortality rate, hatched larvae) activity level (Plutella xylostella)

CCS(=O)(=O)c1cc(C(F)(F)F)ccc1C(=O)N(C)c1ccc(S(=O)(=O)C(F)(F)F)cc1 [Compound 3-88]
A (the control rate is 100%): control effect (control rate) activity level (Myzus persicae) | insecticidal effect (corrected mortality rate) activity level (Laodelphax striatella) | insecticidal effect (corrected mortality rate, hatched larvae) activity level (Plutella xylostella)
